Experimental data: PubChem BioAssay AID504444 (National Center for Advancing Translational Sciences (NCATS), 2011)
Screen size: about 360,000 compounds; about 7,500 (2.1%) were called active. Inconclusive means that the source gave no clear call. Such entries were picked first, then a sample of the others. The call rests on the fitted dose curve; in most records, active means well fitted inhibition curve with a large enough effect; inconclusive means small, poorly fitted or top-dose-only effect, or effect the other way; inactive means flat fitted curve, though single readings scatter. Where the call is inconclusive, the potency comes from a doubtful curve fit.

Test: Nrf2 qHTS screen for inhibitors; further: nearly all actives have a fitted effect of over 60% in size
Conditions: A549 ARE-Fluc reporter, luciferase luminescence, 18-24 h; series mostly up to 46 µM
How it was run: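 A549 ARE_Fluc cells (5000/well, 5% FBS OPTI-MEM) pre-incubated 2 h, then treated with compounds 18-24 h at 37C/5% CO2 in concentration-response. CellTiter-Fluor viability read first; BugLite luciferase luminescence after 15 min at room temperature gives Nrf2 activity.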
Potency means the concentration at half of the fitted maximal effect.

SMILES | Potency
Cc1nc2cccnc2n1-c1cccc(C(=O)NCc2cccc(Cl)c2)c1 | inactive
CCOC(=O)/C(=N/Nc1ccc(C)cc1)S(=O)(=O)c1ccc(Cl)cc1 | inconclusive: 29.1 µM [falling, single point]
COC(=O)c1ccc(/C(O)=C(\C#N)c2nc3ccccc3s2)cc1 | inconclusive: 29.1 µM [falling, single point]
CCCn1nnc(NC(=O)c2ccc(OC)cc2)n1 | inconclusive: 15.8 µM [activator, partial curve, poor fit]
Cc1cc(C)c(S(=O)(=O)N2CCN(C(=O)C(C)Cn3cncn3)CC2)c(C)c1 (centres undefined) | inconclusive: 6.51 µM [activator, single point]
CCOc1ccc(NC(=S)Nc2ccc(OC)cc2)cc1 | inactive
COCCCn1cnc2c(c1=O)c1nc3ccccc3nc1n2CCc1ccccc1 | inconclusive: 11.6 µM [falling, partial curve]
Cc1nc([N+](=O)[O-])c(Br)n1CC(=O)c1ccc(Br)cc1 | active: 23.1 µM
COc1ccccc1N1C(=O)C2C3CC(c4ccccc4)C(C3)C2C1=O (centres undefined) | inactive
O=C(NCc1nc2ccccc2[nH]1)C1=C[C@H](c2ccc(Br)cc2)C[C@H](OCc2ccc(CO)cc2)O1 | inconclusive: 13 µM [falling, partial curve]
O=S1(=O)C=CC(c2ccccc2)C1 (centres undefined) | inconclusive: 0.146 µM [falling, full curve, poor fit]
CCCCN1C(=O)C(=O)N(c2ccccc2)C1=S | inconclusive: 20.6 µM [activator, partial curve]
COc1ccc(C(=O)NCC(=O)c2ccccc2)cc1 | inconclusive: 10.3 µM [activator, partial curve]
COc1cc(C(=O)NCCCNc2nc3cc(C)cc(C)c3cc2C#N)cc(OC)c1OC | inactive
CCOC(=O)Cc1ccc(NC(=O)Nc2nnc(N3CCCCC3C)s2)cc1 (centres undefined) | active: 20.6 µM
COc1ccc(CN(CCCN)c2ccc(Br)cn2)cc1 | inconclusive: 23.1 µM [activator, single point]
COc1ccc(CN([C@H](CO)CC(C)C)S(=O)(=O)N(Cc2ccccc2)[C@H](CO)CC(C)C)cc1 | inconclusive: 20.6 µM [falling, single point]
CC(C)C(NC(=O)CSc1ccc(Cl)cc1)C(C)C | inconclusive: 9.2 µM [falling, partial curve, poor fit]
c1cc2c(cc1CNc1ccc(N3CCOCC3)cc1)OCO2 | inconclusive: 7.31 µM [activator, partial curve]
Cc1cc(C(=O)COc2cccnc2[N+](=O)[O-])c(C)n1Cc1cccs1 | inconclusive: 29.1 µM [falling, single point]
CC1CCN(Cc2c(C(=O)N/N=C/c3cc(Br)ccc3O)nnn2-c2nonc2N)CC1 | inconclusive: 32.6 µM [falling, single point]
CCCCCc1cc(=O)oc2c(C(CCN3CCCC3)c3ccc(N(C)C)cc3)c(OC)cc(OC)c12 (centres undefined) | inactive
Cc1ccccc1NC(=O)CCS(=O)(=O)c1cccc2nonc12 | inconclusive: 20.6 µM [falling, single point]

SMILES | Potency
COc1ccc2nc(-c3ccccc3)cc(OC)c2c1 | inconclusive: 18.4 µM [activator, partial curve]
CC(CCc1ccccc1)NC(=O)CN1CCN(c2ccccc2)CC1 (centres undefined) | inactive
NS(=O)(=O)c1cccc(NC(=O)CSc2ncc(C(F)(F)F)cc2Cl)c1 | inconclusive: 29.1 µM [falling, single point]
Cc1ccccc1Cn1nnc2c1C(=O)c1ccccc1C2=O | inconclusive: 18.4 µM [falling, partial curve]
CC1(C)Cc2c(sc(NC(=O)c3ccc(Br)o3)c2C#N)CO1 | inconclusive: 0.116 µM [activator, full curve, poor fit]
CN(Cc1ccccn1)Cc1nc(-c2ccc(Cl)cc2)no1 | inconclusive: 2.91 µM [activator, partial curve, poor fit]
Cc1cccc(Nc2nnc(SCC(=O)c3ccc(O)cc3O)s2)c1 | inconclusive: 23.1 µM [activator, partial curve, poor fit]
COc1ccc(NC(=O)COCc2cc(-c3ccco3)on2)cc1Cl | inconclusive: 14.6 µM [falling, single point]
Cc1ccc(CN=Cc2[nH]c3ccc(Br)c(Cl)c3c2O)cc1 | inactive
CC1=C(C(=O)Nc2cc(C)cc(C)c2)C2(CCCCC2)OC1=O | inactive
Cn1cnnc1SCCOc1ccc(Cl)cc1 | inconclusive: 20.6 µM [activator, partial curve, poor fit]
Cc1ccc(C(=O)N2CCN(S(=O)(=O)N3CCCCCC3)CC2)cc1 | inconclusive: 29.1 µM [falling, partial curve, poor fit]
CC(=O)N1N=C(c2ccc(Cl)cc2)OC1c1ccc(C(C)C)cc1 (centres undefined) | inconclusive: 9.2 µM [activator, partial curve]
CCCS(=O)(=O)N1CCCC(C(=O)NC(C)c2ccc3c(c2)OCCO3)C1 (centres undefined) | inconclusive: 6.51 µM [activator, single point]
COc1ccc(Cc2nc3ccc(C(=O)N4CCCC4)cc3o2)cc1 | inconclusive: 8.2 µM [activator, partial curve, poor fit]
Cc1nc2ccccc2n1/N=C/c1ccc([N+](=O)[O-])o1 | active: 20.6 µM
CCCCC1(CC(=O)OC)C(=O)N(c2ccccc2)N(c2ccccc2)C1=O | inactive
Cc1ccc(C)c(N2CCN(S(=O)(=O)c3ccc4c(c3)NC(=O)CC(=O)N4)CC2)c1 | inconclusive: 5.8 µM [falling, full curve]
COCCNC(=O)c1c[nH]c2ccc(S(=O)(=O)N3CCC4(CC3)OCCO4)cc2c1=O | inactive
CCOC(=O)N1CCN(c2ccnc3cc(Cl)ccc23)CC1 | inconclusive: 7.31 µM [falling, partial curve]
Cc1cc(C)nc(N2CCCC(C(=O)NCCc3ccc(F)cc3)C2)n1 (centres undefined) | inactive
c1ccc(C[C@H]2CNCCN2CCCCC2CCCCC2)cc1 | inactive
COC(=O)C1CCN(C2=C(NS(=O)(=O)c3ccc(Cl)cc3)C(=O)c3ccccc3C2=O)CC1 | inconclusive: 18.4 µM [falling, single point]

SMILES | Potency
CCCCOc1ccc(/C=C/C(=O)OCC(=O)N2CC(=O)Nc3ccccc32)cc1OCC | inconclusive: 29.1 µM [falling, single point]
CC(OC(=O)/C=C/c1ccccc1)C(=O)NC1CCCCC1C (centres undefined) | inconclusive: 20.6 µM [falling, partial curve, poor fit]
COc1cccc(-c2c(C(=O)N/N=C(\C)c3cccnc3)nnn2-c2nonc2N)c1 | inconclusive: 32.6 µM [falling, partial curve, poor fit]
COc1ccc(-c2cc(C(=O)Oc3ccc(Br)cc3)c3ccccc3n2)cc1 | inactive
O=C(N=Nc1c(O)[nH]c2ccccc12)c1cccs1 | inconclusive: 20.6 µM [activator, partial curve]
COc1ccc(-c2cc3nc4c(c(=O)n3[nH]2)CCC4)cc1 | inconclusive: 23.1 µM [activator, single point]
Cc1c(CCC(=O)N[C@@H](CC(C)C)C(=O)O)c(=O)oc2c(C)c3oc4c(c3cc12)CCCC4 | inconclusive: 2.59 µM [falling, partial curve, poor fit]
CCc1ccc(-n2c(=O)c3sc4ccccc4c3n(CC(=O)NC3CCCC3)c2=O)cc1 | inactive
Cc1cccc(N2CCN(C(=O)CS(=O)(=O)Cc3nc(-c4ccccc4F)oc3C)CC2C)c1 (centres undefined) | active: 16.4 µM
CC(=O)Nc1cc(C)ns1 | inconclusive: 29.1 µM [activator, single point]
Oc1c(Br)cc(/C=N/NC(=S)NCC2CCCO2)cc1Br (centres undefined) | inconclusive: 23.1 µM [falling, single point]
Cc1nc2nc(CNC(=O)OC(C)(C)C)nn2c(C)c1CCC(=O)NCc1ccccc1Cl | inactive
C=C1C(=O)OC2C1CCC(C)C1C=CC(=O)C12C (centres undefined) | inconclusive: 18.4 µM [falling, single point]
N=c1ccn2c(n1)OC1C(O)[C@@H](CO)O[C@H]12 (some centres undefined) | active: 0.164 µM
Clc1ccccc1CSc1snnc1-c1ccccc1 | inconclusive: 3.66 µM [activator, full curve, poor fit]
CC(C)Sc1nc(N)c2c3c(sc2n1)CN(C)CC3 | inconclusive: 16.4 µM [falling, partial curve, poor fit]
CC(C)Oc1ccc(CNC(=O)Oc2ccccc2)cc1 | inactive
Cc1nn(C)cc1CNC(=O)Nc1ccc(Cl)c(Cl)c1 | inconclusive: 2.06 µM [activator, single point]
COCCOC(=O)c1c(NC(=O)CN2CCc3ccccc32)sc(C(N)=O)c1C | inconclusive: 0.103 µM [falling, full curve, poor fit]
O=C(COC(=O)c1ccccc1NC(=O)c1ccco1)NCCC1=CCCCC1 | inconclusive: 16.4 µM [activator, partial curve, poor fit]
COc1ccc(N2CCN(C(=O)c3ccc(Cn4nc(C)c([N+](=O)[O-])c4C)o3)CC2)cc1 | inconclusive: 18.4 µM [falling, single point]
Cc1ccccc1OCC(=O)Nc1cccc(Cl)c1C | inconclusive: 18.4 µM [activator, single point]
COc1ccc(C(=O)/C=C/c2ccc(O)cc2)c(O)c1CC=C(C)C | inactive

Some of the entries so far, comma-delimited:
SMILES,Potency
CC(OC(=O)/C=C/c1ccccc1)C(=O)NC1CCCCC1C (centres undefined),"inconclusive: 20.6 µM [falling, partial curve, poor fit]"
O=C(N=Nc1c(O)[nH]c2ccccc12)c1cccs1,"inconclusive: 20.6 µM [activator, partial curve]"
CC(=O)Nc1cc(C)ns1,"inconclusive: 29.1 µM [activator, single point]"
Oc1c(Br)cc(/C=N/NC(=S)NCC2CCCO2)cc1Br (centres undefined),"inconclusive: 23.1 µM [falling, single point]"
CC(C)Sc1nc(N)c2c3c(sc2n1)CN(C)CC3,"inconclusive: 16.4 µM [falling, partial curve, poor fit]"
COc1ccc(C(=O)/C=C/c2ccc(O)cc2)c(O)c1CC=C(C)C,inactive
